# The list shows a part of the results. The data scatter; read single values as rough.
# Target: T1, PIK3C2A C385 (UniProt O00443)
# T1 sequence (whole entry): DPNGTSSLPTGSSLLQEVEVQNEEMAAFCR
# Test: log2 mean competition ratio of IA-DTB cysteine labelling (DMSO/compound) (log2 ratio); higher = stronger cysteine engagement by compound
# Settings: 50 µM; treatment time: 4 h; cell line lysate: HEK293T
# Experimental: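 IA-DTB competitive cysteine chemoproteomics in HEK293T RIPA lysate. Lysates were treated with compound 29 or 30 at 50 or 200 µM for 4 h, then IA-DTB (500 µM, 1 h), trypsin-digested, NeutrAvidin-enriched and analysed by diaPASEF. Competition ratio = intensity DMSO / intensity compound (n=4 treated, n=64 DMSO); binding: mean log2 CR ≥ 1 and p ≤ 0.05 plus QC filters. Target is the cysteine site.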
row,Compound,log2 mean competition ratio
1,O=C(CCl)N[C@@H]1CCCc2ccccc21,-0.318
2,O=C(CCl)N[C@H]1CCCc2ccccc21,-0.355

# Same assay, conditions: 200 µM; treatment time: 4 h; cell line lysate: HEK293T
row,Compound,log2 mean competition ratio
1,O=C(CCl)N[C@@H]1CCCc2ccccc21,-0.394
2,O=C(CCl)N[C@H]1CCCc2ccccc21,0.204

# From the supplement of paper PMC11732987, “Enantioselective OTUD7B fragment discovery through chemoproteomics screening and high-throughput optimisation” (Communications Chemistry, 2025)
